# Whole data set: some 3,200 compounds, median “TSA(with NAD+) / Primary screening (TSA) / delta Tm (K)” near -0.04, cut for the highest 2% near 0.37. The list shows a part of the results.
# Protein sequences, listed by entry. Tags and fused reporters are not part of them. Residues count along the entry.
# UniProt Q96EB6, 2-747 limits assumed: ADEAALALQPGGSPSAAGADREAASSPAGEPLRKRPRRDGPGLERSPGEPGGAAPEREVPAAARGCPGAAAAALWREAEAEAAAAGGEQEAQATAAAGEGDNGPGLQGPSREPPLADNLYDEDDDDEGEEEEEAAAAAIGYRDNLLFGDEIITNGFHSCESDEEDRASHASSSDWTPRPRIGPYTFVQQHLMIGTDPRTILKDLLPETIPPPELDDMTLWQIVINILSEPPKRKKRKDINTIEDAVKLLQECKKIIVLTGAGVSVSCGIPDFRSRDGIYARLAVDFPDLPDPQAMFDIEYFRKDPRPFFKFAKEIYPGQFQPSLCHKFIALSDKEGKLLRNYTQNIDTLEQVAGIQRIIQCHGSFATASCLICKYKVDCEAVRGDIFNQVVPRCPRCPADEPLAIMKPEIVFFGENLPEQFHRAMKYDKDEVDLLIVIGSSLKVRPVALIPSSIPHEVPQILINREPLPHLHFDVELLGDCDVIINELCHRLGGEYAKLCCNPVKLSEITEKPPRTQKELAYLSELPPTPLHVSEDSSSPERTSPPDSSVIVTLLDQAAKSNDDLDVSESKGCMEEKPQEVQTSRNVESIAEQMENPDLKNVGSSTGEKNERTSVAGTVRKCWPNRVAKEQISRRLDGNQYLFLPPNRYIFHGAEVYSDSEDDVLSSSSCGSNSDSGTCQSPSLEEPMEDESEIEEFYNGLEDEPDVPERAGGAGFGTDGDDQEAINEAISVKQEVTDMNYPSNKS
# Target: NAD-dependent deacetylase Sirtuin 1 (human, UniProt Q96EB6)
# Test: primary screen, delta tm
# Parameters: single well (n = 1, as 'the same TSA')
# Conditions: 10 µM
row,Compound,TSA(with NAD+) / Primary screening (TSA) / delta Tm (K)
1,NC1=C(c2nc3ccccc3[nH]2)C(=O)CN1c1ccc(CC(=O)O)cc1,-0.03 K
2,CC(=O)c1ccc(F)cc1NC(=O)C1CCCOC1 (centres unmarked),-0.22 K
3,COc1cc(Br)c(/C=C2/Oc3cc(O)ccc3C2=O)cc1O,0.03 K
4,Cc1ccc(-c2sc(-c3ccccc3)nc2CC(=O)N/N=c2/sc3ccccc3n2C)cc1,0.25 K
5,NC(=O)C1CCN(CC(=O)Nc2cc(C3CCCC3)nn2-c2ccccc2)CC1,-0.28 K
6,CC1=NN(c2ccccc2)C(=O)/C1=C\c1cn(-c2ccccc2)nc1-c1cc2ccccc2oc1=O,-0.28 K
7,Cc1sc2nc(CSc3ccccc3)nc(N3CCC(C(N)=O)CC3)c2c1C,0.49 K
8,O=C(Nc1cc(Br)c(F)cc1Cl)C1CCCO1 (centres unmarked),-0.04 K
9,CC(NS(=O)(=O)c1ccc(C(N)=O)cc1)c1cc(F)c(Cl)cc1Cl (centres unmarked),-0.04 K
10,COc1ccc(OC)c(/C=C2/Oc3cc(O)ccc3C2=O)c1,-0.06 K
11,O=C(CN1CCN(C(=O)c2ccccc2Oc2ccccc2)CC1)Nc1ccccc1Cl,-0.01 K
12,Cc1cc(S(=O)(=O)NCc2ccc(C(N)=O)cc2)sc1Cl,0.06 K
13,O=C1CC(c2ccccc2)c2ccc3ccccc3c2N1 (centres unmarked),-0.52 K
14,O=C(Cc1n[nH]c(=O)c2ccccc12)Nc1ccc(N2CCN(Cc3ccccc3)CC2)cc1,-0.03 K
15,Cc1nc(-c2cccnc2)nc(NCC2CCOC2)c1C (centres unmarked),-0.24 K
16,O=C(CN1CCN(c2ncnc3c2oc2ccccc23)CC1)c1cccs1,-0.02 K
17,OCC1CCN(c2ncnc3ccsc23)CC1,-0.13 K
18,Cc1cc(C)n2nc(C(=O)Nc3cc(C(N)=O)cc(F)c3C)nc2n1,-0.01 K
19,Cc1nc2cc(NC(=O)CCNC(=O)/C=C/c3ccccc3)ccc2o1,-0.05 K
20,C=CCn1c(SCC(=O)NCc2ccccc2F)nc2ccsc2c1=O,0.06 K
21,CCCCCCc1cc2c3c(c(=O)oc2cc1OCC(N)=O)CCC3,-0.04 K
22,CN(C)c1ccc(CCC(=O)N2CCN(c3cnccn3)CC2)cc1,-0.03 K
23,COc1ccc(-c2nnc(S)n2CC(=O)Nc2ccc(C(N)=O)cc2)cc1,-0.04 K

# A draw from above in order of formula weight, ascending.
row,Compound,TSA(with NAD+) / Primary screening (TSA) / delta Tm (K)
15,Cc1nc(-c2cccnc2)nc(NCC2CCOC2)c1C (centres unmarked),-0.24 K
22,CN(C)c1ccc(CCC(=O)N2CCN(c3cnccn3)CC2)cc1,-0.03 K
18,Cc1cc(C)n2nc(C(=O)Nc3cc(C(N)=O)cc(F)c3C)nc2n1,-0.01 K
16,O=C(CN1CCN(c2ncnc3c2oc2ccccc23)CC1)c1cccs1,-0.02 K
20,C=CCn1c(SCC(=O)NCc2ccccc2F)nc2ccsc2c1=O,0.06 K

# In the list so far, these have bromine:
row,Compound,TSA(with NAD+) / Primary screening (TSA) / delta Tm (K)
3,COc1cc(Br)c(/C=C2/Oc3cc(O)ccc3C2=O)cc1O,0.03 K
8,O=C(Nc1cc(Br)c(F)cc1Cl)C1CCCO1 (centres unmarked),-0.04 K

# Additional records

row,Compound,TSA(with NAD+) / Primary screening (TSA) / delta Tm (K)
1,O=C(COC(=O)c1cc(-c2ccc(Cl)cc2)nc2ccccc12)NNC(=O)c1cccs1,0.16 K
2,COc1ccc2c(C=C3C(=O)NC(=S)NC3=O)cccc2c1,-0.28 K
3,CCCCn1nnnc1COC(=O)c1cccc(S(=O)(=O)N(C)c2ccc(OC)cc2)c1,-0.06 K
4,O=C(Cn1[nH]c(=O)c2ccccc2c1=O)Nc1ccc(N2CCN(Cc3ccccc3)CC2)cc1,0.05 K
5,COCCOc1cccc(Br)c1,-0.13 K
6,COc1ncnc2c1CN(Cc1nc(-c3ccccc3)oc1C)CC2,-0.04 K
7,Nc1nsc(N2CCN(c3nc(C4CC4)nc4sc5c(c34)CCCC5)CC2)n1,-0.12 K
8,COc1ccc(NC(=O)c2ccccc2NC(=O)COC(=O)C23CC4CC(CC(O)(C4)C2)C3)cc1,-0.04 K
9,CC(NCC(=O)NCC(=O)Nc1ccc(F)cc1)c1cccs1 (centres unmarked),-0.11 K
10,CCN1CCN(Cc2ccc(CNC(=O)OCC(F)(F)F)cc2)CC1,-0.04 K
11,O=C(Nc1cccc(S(=O)(=O)N2CCOCC2)c1)c1cn(-c2ccccc2)nc1-c1ccccc1,0.12 K
12,COc1ccc(N(C)S(=O)(=O)c2cccc(C(=O)OCCN3C(=O)c4ccccc4C3=O)c2)cc1,-0.03 K
13,CCc1cc(O)nc(Cn2c(N)nc(C#N)c2C#N)n1,-0.24 K
14,O=C1NC(=S)NC(=O)C1=Cc1cn(-c2ccccc2)nc1-c1cc2ccccc2oc1=O,-0.05 K
15,O=C(CSc1nnc(NCc2ccco2)s1)N1CCN(C/C=C/c2ccccc2)CC1,0.05 K
16,Cc1cccc(CN2CCN(C(=O)COC(=O)c3ccc(C(N)=O)cc3)CC2)c1,-0.16 K
17,CC(=O)Nc1ccc(NCc2nnc3n(C)c(=O)c4ccccc4n23)cc1,-0.12 K
18,COc1ccc(OC)c(N(CC(=O)NN=C2CCC(C(C)(C)C)CC2)S(=O)(=O)c2ccc(OC)c(OC)c2)c1 (centres unmarked),0.06 K
19,CCc1cc(C(=O)Nc2cc(C(N)=O)ccc2N2CCCC2)sc1C,-0.13 K
20,Nc1ncnc2c1ncn2[C@@H]1O[C@H](CO)[C@@H](O)[C@H]1O,-0.03 K
21,COc1ccc(NN=C2C(=O)NC(=S)NC2=O)cc1,-0.04 K
22,CC(NC(=O)COC(=O)c1cccc(S(=O)(=O)NCc2ccccc2)c1)C12CC3CC(CC(C3)C1)C2 (centres unmarked),0.05 K
23,CC(C)COc1ccc(C(=O)C2=C(O)C(=O)N(CCN3CCOCC3)C2c2ccncc2)cc1 (centres unmarked),-0.09 K

row,Compound,TSA(with NAD+) / Primary screening (TSA) / delta Tm (K)
1,Cc1cc(CN2CCN(S(=O)(=O)c3cc(C(N)=O)n(C)c3)CC2)on1,-0.19 K
2,Cc1ccc(N(C)S(=O)(=O)c2cccc(C(=O)Nc3sc4c(c3C(N)=O)CCCC4)c2)cc1,0.13 K
3,N#Cc1cc(O)cc(C(=O)OCC(=O)NC2(C#N)CCCCC2)c1,-0.05 K
4,Cc1ccc(C(=O)NCC(=O)N2CC=C(c3c[nH]c4cc(F)ccc34)CC2)s1,0.01 K
5,Cc1ccc(C(=O)N(C)C)cc1OC(=O)c1ccc2[nH]c(C(F)F)nc2c1,-0.18 K
6,CCOCC(NC(=O)N1CCN(C(=O)c2cc3ccccc3[nH]2)CC1)C(C)C (centres unmarked),-0.04 K
7,CC1CN(C(=O)/C=C/c2ccc(C(=O)O)cc2)CC(C)(C)O1 (centres unmarked),-0.13 K
8,COc1ccccc1NC(=O)COc1ccc(C(=O)OCC(=O)NC23CC4CC(CC(C4)C2)C3)cc1OC,0.13 K
9,CCc1cc2c(N3CCC(C(N)=O)CC3)nc(C)nc2s1,-0.18 K
10,CC(=O)Nc1ccc(CNCc2ccccc2CN2CCCC2)cc1,-0.16 K
11,Cc1ccc(-c2nnc(NC(=O)COc3cc(C)cc(C)c3)[nH]2)cc1,-0.11 K
12,CS(=O)(=O)Nc1ccc(C(=O)/C=C/c2ccc3c(c2)CCO3)cc1,0.09 K
13,Cn1cc(S(=O)(=O)NCC2CCN(c3ccc(F)cc3)C2)cc1C(=O)O (centres unmarked),-0.01 K
14,COC(=O)c1ccc2[nH]c(=O)[nH]c2c1,-0.01 K
15,c1ccc2c(c1)oc1c(N3CCCC3)ncnc12,-0.14 K
16,Cc1[nH]c2ccccc2c1C1CCN(C(=O)c2n[nH]c3c2CCC3)CC1,-0.01 K
17,NC(=O)CC(Nc1ncncc1Br)C1CCCCC1 (centres unmarked),-0.09 K
18,O=C(CSc1nnc(NCc2ccco2)s1)Nc1nc2c(F)c(F)c(F)cc2s1,-0.08 K
19,COC(=O)/C=C1/NC(=O)CS1,-0.13 K
20,O=C(NNC1c2ccccc2-c2ccccc21)c1ccc2ccccc2n1,-0.11 K
21,COc1ccc(N(C)S(=O)(=O)c2cccc(C(=O)NNC(=O)OC(C)(C)C)c2)cc1,-0.14 K
22,CCOC(=O)c1cn[nH]c1N,-0.19 K
23,CCOC(=O)N1CCN(CCC(=O)Nc2ccc(C(C)=O)cc2)CC1,-0.19 K

row,Compound,TSA(with NAD+) / Primary screening (TSA) / delta Tm (K)
1,NC(=O)c1ccccc1NC(=O)C1CC1,-0.19 K
2,NCC1(O)CCC1,-0.15 K
3,O=C(COC(=O)Cc1coc2cc(O)ccc12)Nc1cccc2ccccc12,0.05 K
4,O=C1NC(=S)NC(=O)C1=Cc1cc2ccccc2[nH]c1=O,-0.09 K
5,O=C1/C(=C\c2ccc(Br)cc2F)Cc2ccccc21,-0.01 K
6,COc1cccc(C2C(C(=O)c3ccc(F)cc3)=C(O)C(=O)N2CCCN2CCOCC2)c1OC (centres unmarked),-0.03 K
7,Cc1cc(N2CCN(c3ncc(C(F)(F)F)cc3Cl)CC2)n2ncnc2n1,-0.01 K
8,CC(OC(=O)CC(NC(=O)OC(C)(C)C)C1CC1)c1cnc2ccccc2c1 (centres unmarked),0.03 K
9,Cc1ccc(N(C)S(=O)(=O)c2cccc(C(N)=O)c2)cc1,-0.04 K
10,Cc1ccc(C23CC4CC(CC(C(=O)OCC(=O)NC(=O)NCc5ccccc5)(C4)C2)C3)cc1,0.16 K
11,CC(C)C(C)Nc1ncnc2ccsc12 (centres unmarked),-0.16 K
12,Cc1cccc(C(=O)Nc2ccccc2Oc2ccccc2)c1,-0.13 K
13,Cc1cccc(NC(=O)CN2CCN(C(=O)c3ccccc3Oc3ccccc3)CC2)c1C,-0.16 K
14,NC(=O)C1CCN(c2cc(N3CCCC3)ncn2)C1 (centres unmarked),-0.08 K
15,CC(CNC(=O)c1cccc(Nc2ncccn2)c1)N1CCOCC1 (centres unmarked),-0.22 K
16,NC(=O)c1cc(NC(=O)c2nn(-c3ccc(F)cc3)c3c2CCCC3)ccc1Cl,-0.03 K
17,O=C1NC(=O)C2(CCN(C(=O)C34CC5CC(CC(Br)(C5)C3)C4)CC2)N1,0.05 K
18,COCCNc1nnc(SCc2cc(=O)oc3c(C)c(O)ccc23)s1,0.07 K
19,Cc1ccc(N2C(=O)CN=C2S)cc1,-0.13 K
20,O=S1(=O)CCC(CSc2nnc(NCC3CCCO3)s2)CC1 (centres unmarked),-0.25 K
21,O=C(O)c1ccc2[nH]c3c(c2c1)CCCCC3,0.03 K
22,O=S1(=O)CCC(N2CCN(c3ncnc4c3oc3ccccc34)CC2)C1 (centres unmarked),-0.04 K
23,O=C(CCN1C(=O)NC2(CCCCC2)C1=O)NC1C2CC3CC(C2)CC1C3 (centres unmarked),-0.13 K

# Reference: publication PMC6925144, “A prospective compound screening contest identified broader inhibitors for Sirtuin 1” (Scientific Reports, 2019)
